Test results as given in patent US10538490B2, “Benzylaminopyridylcyclopropanecarboxylic acids, pharmaceutical compositions and uses thereof” (Boehringer Ingelheim International GmbH, priority 2016, dated 2020).

Sequences of proteins named here, by UniProt entry; tags and fusion partners are left off.
UniProt O14842, whole entry: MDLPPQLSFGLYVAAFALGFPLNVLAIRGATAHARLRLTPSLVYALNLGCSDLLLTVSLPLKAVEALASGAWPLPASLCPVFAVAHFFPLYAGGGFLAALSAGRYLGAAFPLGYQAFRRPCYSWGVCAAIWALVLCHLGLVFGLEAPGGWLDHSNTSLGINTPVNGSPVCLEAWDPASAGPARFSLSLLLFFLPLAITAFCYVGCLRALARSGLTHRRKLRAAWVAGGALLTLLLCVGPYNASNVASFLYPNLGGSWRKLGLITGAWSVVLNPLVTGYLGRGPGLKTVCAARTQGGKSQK

Molecular target: human GPR40 receptor (Homo sapiens, UniProt O14842)
Assay: IP1 accumulation measurements using the IPOne assay system
Type: cell-based
Conditions: 1321N1 cells stably expressing human GPR40 receptor, stimulation 1 h at 37° C.
Method: IP1 accumulation measurements using the IPOne assay system—1321N1 cells stably expressing human GPR40 receptor (Euroscreen, Belgium) are seeded 24 h before the assay in white 384-well plates in culture medium containing 10% FCS, 1% Na-Pyruvate and 400 μg/mL G418. IPi is assayed according to the manufacturer's description (Cisbio Bioassays, France). In brief, the assay is started by substitution of the culture medium by stimulation buffer (Hepes 10 mM, CaCl2 1 mM, MgCl2 0.5 mM, KCl 4.2 mM, NaCl 146 mM, glucose 5.5 mM and LiCl 50 mM, pH 7.4). Cells are stimulated for 1 h at 37° C., 5% CO2 by addition of the compounds that are diluted in stimulation buffer containing LiCl. Assays are stopped by adding HTRF-conjugates (IP1-d2 and Anti-IP1 cryptate Tb) and lysis buffer, provided by the manufacturer. After an incubation time of 1 h at room temperature plates are measured using an EnVision™, Perkin Elmer. The obtained fluorescence ratios at 665/615 […] are then used to calculate the pEC50 values using Assay Explorer 3.3 Software (Accelrys, Inc.) by interpolation using an IP1 reference curve and subsequent sigmoidal curve fitting allowing for a variable hill slope.

## Cc1cc(O)cc(C)c1-c1ccc(F)c(CNc2ccc(C3CC3C(=O)O)cn2)c1 (stereo not shown)
  EC50: 0.026 µM

The structures given here were assigned with low confidence; some may be wrong.
